Measurements from PubChem BioAssay AID2685 (National Center for Advancing Translational Sciences (NCATS), 2010).
Some of the results follow. The main result of the screen is listed elsewhere. These columns were measured beside it and carry no call. The list favours compounds with an active or inconclusive main result. The note in brackets gives the kind of curve behind each potency; many fits are weak.

Assay: qHTS Assay for Lipid Storage Modulators in Drosophila S3 Cells;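 as to cell number change: cells counted by Cell Tracker Red CMTPX staining in the red channel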
Conditions: BODIPY lipid droplet fluorescence, 18-24 h; for cell number change: measured here: cell count max response, cells fed with added oleic acid
Outline: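 Laser-scanning cytometry quantifies lipid droplet accumulation (500–530 nm total intensity; droplet/cell object ratio) in oleic acid-fed (400 uM added) Drosophila S3 cells treated with a concentration series. 20 uM Triacsin C defined 100% inhibition.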

[1] = measured here: lipid fluorescence (Fed channel) AC50, cells fed with added oleic acid
[2] = measured here: cell number channel AC50, cells fed with added oleic acid

| Compound | AC50 [1] | cell number change [%] | AC50 [2] |
| --- | --- | --- | --- |
| CCc1ccc(NC(=S)N(CCOC)C2CCN(C(C)=O)CC2)cc1 | 1460 nM [rising, partial curve, poor fit] | – | – |
| CCn1c(-c2ccc(F)cc2)cnc1SCC(=O)N1CCc2ccccc21 | 5170 nM [rising, partial curve, poor fit] | 12.1 | – |
| CCCOc1ccc(-c2c(C(=O)N/N=C(\C)c3cccs3)nnn2-c2nonc2N)cc1 | 29100 nM [falling, single point] | 7.67 | – |
| C[n+]1cccc2ccc3c(c21)OC(N)=C(C#N)C3c1ccccc1 (stereo unspecified) | 116 nM [falling, full curve, poor fit] | – | – |
| Cc1cc[n+](CC(=O)c2ccc(NC(=O)c3ccccc3)cc2)c2ccccc12 | – | 8.45 | – |
| Cc1ccccc1C(=O)NNC1CC(=O)N(c2ccc3c(c2)OCCO3)C1=O (stereo unspecified) | – | -2.91 | – |
| COc1ccc(CCn2c(C)c(C(C)=O)c(C(C)=O)c2C)cc1OC | – | – | 116 nM [falling, full curve, poor fit] |
| C=CCNc1sc(C(=O)C2CC2)c(N)c1C#N | 6510 nM [rising, single point] | 14.9 | – |
| CCOc1ccc(OCC(=O)OC(C)C(=O)Nc2ccc(Cl)cn2)cc1 (stereo unspecified) | 29100 nM [rising, single point] | 50 | 366 nM [rising, full curve] |
| CC1=C(C(=O)O)N2C(=O)C(NC(=O)c3nn(C)cc3Cl)C2SC1 (stereo unspecified) | – | 17 | – |
| O=C(Nc1nnc(-c2ccco2)o1)c1cccc(Cl)c1 | – | -2.28 | – |
| CC12CCC(=O)N1C(C(=O)NNC(=O)c1ccccc1F)CS2 (stereo unspecified) | 73.1 nM [falling, full curve, poor fit] | 19.7 | 4610 nM [falling, single point] |
| COC(=O)c1ccc(CN2C(=O)NC(Cc3c[nH]c4ccccc34)C2=O)cc1 (stereo unspecified) | 5620 nM [falling, single point] | -2.63 | – |
| CCOC(=O)C1CCCN(C(=O)CNC(=O)Cn2ccc3ccccc3c2=O)C1 (stereo unspecified) | 580 nM [falling, single point] | -5.08 | 92 nM [falling, single point] |
| COc1ccc(NC(=O)Cn2nnc(-c3ccccc3NC(=O)c3ccco3)n2)cc1 | 23100 nM [falling, single point] | -47.8 | 18400 nM [falling, single point] |
| CC(C)NC(=O)c1ccc(-c2cc(C(F)(F)F)ccc2Cl)o1 | – | 6.42 | – |
| Cc1ccc(CNC(=O)c2ccc(N3CCc4ccccc43)c([N+](=O)[O-])c2)cc1 | 18400 nM [falling, single point] | -53.3 | 23100 nM [falling, single point] |
| Cc1cc(C(=O)CSc2nnnn2C)c(C)n1CCc1ccc(F)cc1 | 1840 nM [rising, single point] | -3.98 | – |
| O=C(NCCc1ccccc1)C1CCC(CNS(=O)(=O)c2ccccc2)CC1 (stereo unspecified) | – | -9.85 | – |
| COc1ccc(CNC(=O)C2CCCN2C(=O)NC2CCCCC2)cc1 (stereo unspecified) | 6510 nM [falling, single point] | -26.8 | – |

Exported as tab-separated lines: entries from further up.
Compound	AC50 [1]	cell number change [%]	AC50 [2]
CCn1c(-c2ccc(F)cc2)cnc1SCC(=O)N1CCc2ccccc21	5170 nM [rising, partial curve, poor fit]	12.1	–
CC1=C(C(=O)O)N2C(=O)C(NC(=O)c3nn(C)cc3Cl)C2SC1 (stereo unspecified)	–	17	–

(continued)

| Compound | AC50 [1] | cell number change [%] | AC50 [2] |
| --- | --- | --- | --- |
| COc1ccc(-c2noc(CCC(=O)N(C)c3cccc(C)c3)n2)cc1 | 184 nM [rising, full curve, poor fit] | – | 164 nM [rising, full curve, poor fit] |
| O=C(CSc1ccc(Cl)cc1)NNC(=O)c1cccnc1 | – | 31.3 | 20600 nM [rising, single point] |
| C=CCC1c2cccc(C(=O)O)c2C(=O)N1c1cccc(OC)c1 (stereo unspecified) | 4.61 nM [falling, full curve, poor fit] | 1.85 | – |
| CCCCN=c1scc(-c2ccc3c(c2)NC(=O)CO3)n1N=C1CCCC1 | 1300 nM [rising, full curve] | 4.83 | 1030 nM [rising, full curve] |
| CCCC(=O)c1cc2ccccc2oc1=O | 18400 nM [falling, partial curve] | 18.3 | – |
| COc1cccc(NC(=S)N2CCN(S(=O)(=O)c3ccccc3)CC2)c1 | 29100 nM [rising, partial curve, poor fit] | 4.34 | – |
| CC(NS(=O)(=O)c1ccc(N)cc1)C1CC2CCC1C2 (stereo unspecified) | – | 22.9 | – |
| COC(=O)CCN(c1ccccc1)S(=O)(=O)c1cc(-c2cc(C)no2)ccc1C | 3260 nM [falling, partial curve] | -37.1 | 16400 nM [falling, partial curve, poor fit] |
| CC(NS(=O)(=O)c1ccc(NC(=O)N2CCCCC2)cc1)c1ccccc1 (stereo unspecified) | 6510 nM [rising, single point] | -8.29 | – |
| CN1C(=O)c2cccc3c(Cl)ccc(c23)C1=O | 1840 nM [rising, partial curve, poor fit] | -6.18 | – |
| Cc1ccccc1NC(=O)CSc1nnc2ccc(-c3ccncc3)nn12 | 51.7 nM [rising, full curve, poor fit] | – | 5.17 nM [rising, full curve, poor fit] |
| COc1ccccc1Nc1nc(-c2sc(NC(=O)c3cccc(Cl)c3)nc2C)cs1 | 1840 nM [falling, partial curve] | -33.4 | 1160 nM [falling, full curve, poor fit] |
| CCOC(=O)C1CCCN(CCC(=O)Nc2ccc(Br)cc2)C1 (stereo unspecified) | – | 2.47 | – |
| COc1ccc(S(=O)(=O)N2CCN(C)CC2)cc1Br | – | -8.36 | – |
| CCn1c(=O)c(=O)[nH]c2c(=O)oc3ccc(S(=O)(=O)Nc4ccc(OC)cc4)cc3c21 | 5170 nM [falling, full curve, poor fit] | – | – |
| COc1ccc(CNC(=O)C(C)Sc2ccc(S(=O)(=O)N3CCOCC3)cn2)cc1 (stereo unspecified) | – | 10.4 | – |
| Cc1sc2nc(CSC(C)C(=O)Nc3ccc(C#N)cc3)[nH]c(=O)c2c1C (stereo unspecified) | 820 nM [falling, full curve, poor fit] | – | – |
| Cc1occc1C(=O)Nc1ccc(OCc2ccccc2)cc1 | 29100 nM [falling, single point] | -18 | – |
| COC(=O)c1cc(C(=O)OCC(=O)NC2CCS(=O)(=O)C2)cc([N+](=O)[O-])c1 (stereo unspecified) | 146 nM [falling, full curve] | 13.6 | 4.61 nM [falling, full curve, poor fit] |
| Oc1cccc(-c2nc3ccc4ccccc4c3c3c2CCC3)c1 | 580 nM [falling, single point] | – | – |

| Compound | AC50 [1] | cell number change [%] | AC50 [2] |
| --- | --- | --- | --- |
| COc1cc(C(=O)NCC(=O)N/N=C/c2ccco2)cc(OC)c1OC | 2310 nM [rising, partial curve] | -12.5 | – |
| Cc1cc(-c2onc(C)c2C(N)=O)no1 | 1840 nM [falling, full curve, poor fit] | -9.24 | – |
| O=C(CCCc1ccccc1)Nc1ccnn1C1CCN(Cc2ccccc2F)CC1 | – | 4.11 | – |
| O=C(NC1CCCCC1)N1CCN(CCc2ccccc2)CC1 | 16400 nM [falling, partial curve] | -27.5 | – |
| O=C(CSc1ncccc1C(=O)O)c1ccccc1 | – | -0.202 | – |
| O=Cc1ccccc1-n1cccn1 | – | 6.62 | – |
| CCOC(=O)c1c(NC(=O)CSc2nnnn2-c2ccc3c(c2)OCO3)sc(C)c1C | – | 2.54 | – |
| O=C(CNS(=O)(=O)c1ccc2ccccc2c1)Nc1ccc(F)c(F)c1F | 20600 nM [rising, partial curve, poor fit] | -3.44 | – |
| S=c1[nH]nc(COc2ccc(Cl)cc2Cl)n1-c1ccccc1 | 5.17 nM [rising, full curve, poor fit] | 2.93 | – |
| CCCN(CC(=O)Nc1ccccc1C)C(=O)c1cc(C)oc1C | 4.61 nM [rising, full curve, poor fit] | -18.7 | 11.6 nM [rising, full curve, poor fit] |
| Cc1c(C(=O)N2CCN(C3CCS(=O)(=O)C3)CC2)oc2c(F)cccc12 (stereo unspecified) | 3660 nM [falling, single point] | -7.03 | – |
| Cc1ccccc1Nc1nnc(SCC(=O)c2c(N)n(C)c(=O)n(C)c2=O)s1 | 29100 nM [falling, single point] | -47.5 | 13000 nM [falling, partial curve, poor fit] |
| COc1cccc(C(=O)Nc2cccc3ccccc23)c1OC | – | 8.42 | 4.61 nM [rising, full curve, poor fit] |
| N#C/C(=C\C1=C(N2CCOCC2)C(=C\c2ccc(Cl)cc2)/CC1)C(=O)Nc1ccccc1F | – | -77 | 25900 nM [falling, single point] |
| Clc1ccc(-c2noc3c2-c2nc(Cc4cccc5ccccc45)sc2CC3)cc1 | 18400 nM [rising, partial curve, poor fit] | 55.8 | 16400 nM [rising, partial curve, poor fit] |
| CCOC(=O)c1nn(-c2ccc(C)cc2)cc1O | 184 nM [rising, full curve, poor fit] | -12 | – |
| Cc1cc(C)n2nc(C(=O)OCC(=O)N3CCC3)nc2n1 | 5.17 nM [falling, full curve, poor fit] | -24.2 | – |
| COc1ccc(C2CC(c3cccc(C)c3)n3nc(N)nc3N2)cc1 (stereo unspecified) | 6510 nM [rising, single point] | – | – |
| Cc1ccc(S(=O)(=O)Nc2ccc(C(OC(=O)c3ccccc3[N+](=O)[O-])(C(F)(F)F)C(F)(F)F)cc2)cc1 | 29100 nM [falling, single point] | -18.9 | – |
| CCOC(=O)CNC(=O)CSc1nc2nc(C)c(Br)cc2[nH]1 | – | 82.2 | 9200 nM [rising, partial curve] |

Of the compounds above, 9 have an aryl thioether with sulfur outside any ring.

| Compound | AC50 [1] | cell number change [%] | AC50 [2] |
| --- | --- | --- | --- |
| CCn1c(-c2ccc(F)cc2)cnc1SCC(=O)N1CCc2ccccc21 | 5170 nM [rising, partial curve, poor fit] | 12.1 | – |
| Cc1cc(C(=O)CSc2nnnn2C)c(C)n1CCc1ccc(F)cc1 | 1840 nM [rising, single point] | -3.98 | – |
| O=C(CSc1ccc(Cl)cc1)NNC(=O)c1cccnc1 | – | 31.3 | 20600 nM [rising, single point] |
| Cc1ccccc1NC(=O)CSc1nnc2ccc(-c3ccncc3)nn12 | 51.7 nM [rising, full curve, poor fit] | – | 5.17 nM [rising, full curve, poor fit] |
| COc1ccc(CNC(=O)C(C)Sc2ccc(S(=O)(=O)N3CCOCC3)cn2)cc1 (stereo unspecified) | – | 10.4 | – |
| O=C(CSc1ncccc1C(=O)O)c1ccccc1 | – | -0.202 | – |
| CCOC(=O)c1c(NC(=O)CSc2nnnn2-c2ccc3c(c2)OCO3)sc(C)c1C | – | 2.54 | – |
| Cc1ccccc1Nc1nnc(SCC(=O)c2c(N)n(C)c(=O)n(C)c2=O)s1 | 29100 nM [falling, single point] | -47.5 | 13000 nM [falling, partial curve, poor fit] |
| CCOC(=O)CNC(=O)CSc1nc2nc(C)c(Br)cc2[nH]1 | – | 82.2 | 9200 nM [rising, partial curve] |
